Reference: PubChem BioAssay AID652243 (Drosophila RNAi Screening Center, 2013)
The screen tested about 24,000 reagents; below is a random part of those with a known target gene and a result. Over the whole deposit, 246 (1%) were called active. 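Plates not normalised; calls are printed but the firefly/Renilla ratio behind them is not deposited; fold cut for lowering reported inconsistently.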 Raw values vary from plate to plate and are shown uncorrected. A plus sign joins genes that one reagent is predicted to hit. The record does not give: the amount of reagent.

- Purpose: 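Knock-downs that decrease or increase androgen receptor reporter signal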 (primary screen)
- System: Drosophila S2R+ cells
- Reagent: long dsRNA against Drosophila genes
- Duration: 72 h (48 h, then 24 h hormone)
- Treatment: synthetic androgen R1881 at 10 nM for 24 h
- Read-out: 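Firefly light from an androgen-responsive reporter and Renilla control light per well, raw and unnormalised, for each of two replicates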
- Scale: firefly reporter light: higher = more light from androgen-responsive reporter; Renilla control light: higher = more constitutive control signal (cell number, transfection)
- Rule for the call: 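Across duplicate plates, a knock-down whose log firefly/Renilla ratio shifted a set fold down or up from the GFP/LacZ control mean was a hit; the downward cut appears as both 1.5 and 3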
- Meaning of the calls: active = hit: reporter lowered or raised; inactive = no hit

| gene knocked down | DRSC id | firefly reporter light, replicate 1 | firefly reporter light, replicate 2 | Renilla control light, replicate 1 | Renilla control light, replicate 2 | Outcome |
| --- | --- | --- | --- | --- | --- | --- |
| CYLD (GeneID 34380) | DRSC02870 | 2.57e5 | 2.78e5 | 1.36e6 | 1.80e6 | inactive |
| CG3505 (GeneID 41777) | DRSC15489 | 1.09e5 | 76397 | 6.62e5 | 7.65e5 | inactive |
| CG30187 (GeneID 246509) | DRSC22461 | 3.78e5 | 6.87e5 | 4.74e5 | 7.61e5 | inactive |
| CG13578 (GeneID 37891) | DRSC04214 | 2.22e5 | 1.64e5 | 1.71e6 | 1.53e6 | inactive |
| CG33655 (GeneID 8674081) | DRSC38896 | 1.07e6 | 9.57e5 | 2.01e6 | 1.45e6 | inactive |
| CG14421 (GeneID 31285) | DRSC17918 | 2.24e5 | 2.34e5 | 3.44e6 | 3.27e6 | inactive |
| CG14421 (GeneID 31285) | DRSC25245 | 1.29e6 | 1.31e6 | 9.60e5 | 8.89e5 | inactive |
| Srrm234 (GeneID 38206) | DRSC07955 | 1.31e5 | 1.80e5 | 1.75e5 | 2.60e5 | inactive |
| Srrm234 (GeneID 38206) | DRSC08606 | 9.36e5 | 5.84e5 | 1.45e6 | 1.48e6 | inactive |
| MED27 (GeneID 40696) | DRSC12205 | 57663 | 59617 | 2.17e6 | 1.66e6 | inactive |
| Rhau (GeneID 35339) | DRSC03200 | 1.34e6 | 1.13e6 | 2.04e6 | 1.78e6 | inactive |
| Rhau (GeneID 35339) | DRSC27042 | 3.74e5 | 2.64e5 | 9.36e5 | 6.69e5 | inactive |
| CG1314 (GeneID 33066) | DRSC20495 | 1.23e5 | 1.12e5 | 5.82e5 | 5.56e5 | inactive |
| wuho (GeneID 31566) | DRSC18101 | 1.98e5 | 3.34e5 | 2.77e6 | 3.42e6 | inactive |
| wuho (GeneID 31566) | DRSC27950 | 7.60e5 | 4.81e5 | 3.25e6 | 1.62e6 | inactive |
| Cyp12d1-d + Cyp12d1-p | DRSC21507 | 6.69e5 | 7.82e5 | 3.07e6 | 2.41e6 | inactive |
| Cyp12d1-d + Cyp12d1-p | DRSC27261 | 2.10e5 | 3.09e5 | 5.46e5 | 6.30e5 | inactive |
| CG14591 (GeneID 35531) | DRSC04868 | 3.63e5 | 3.87e5 | 2.68e6 | 2.76e6 | inactive |
| eEF1gamma (GeneID 44791) | DRSC16659 | 90532 | 60134 | 1.45e6 | 1.89e6 | inactive |
| eEF1gamma (GeneID 44791) | DRSC23655 | 4.91e5 | 3.82e5 | 4.07e5 | 4.63e5 | inactive |
| Gcna (GeneID 31139) | DRSC18553 | 99546 | 67567 | 8.99e5 | 7.81e5 | inactive |
| CG33769 (GeneID 3772499) | DRSC11716 | 1.95e5 | 2.95e5 | 2.71e6 | 3.13e6 | inactive |
| 14-3-3epsilon (GeneID 42186) | DRSC16370 | 73149 | 62296 | 1.35e6 | 1.05e6 | inactive |
| CG15399 (GeneID 33472) | DRSC38934 | 8.99e5 | 9.61e5 | 2.26e6 | 2.08e6 | inactive |
| lncRNA:CR43493 + l(1)G0196 | DRSC20628 | 1.21e5 | 96921 | 1.01e6 | 8.69e5 | inactive |
| cutlet (GeneID 44637) | DRSC00284 | 4.40e5 | 7.19e5 | 1.14e6 | 1.57e6 | inactive |
| cutlet (GeneID 44637) | DRSC29552 | 3.25e5 | 4.56e5 | 8.30e5 | 8.30e5 | inactive |
| CG34224 (GeneID 5740585) | DRSC38880 | 7.02e5 | 6.03e5 | 1.85e6 | 1.91e6 | inactive |
| Dif (GeneID 35045) | DRSC03316 | 2.14e5 | 3.39e5 | 2.13e6 | 2.65e6 | inactive |
| CheB38b (GeneID 2768933) | DRSC22874 | 2.54e5 | 8.23e5 | 4.08e5 | 1.11e6 | inactive |
| kra (GeneID 40680) | DRSC12320 | 43197 | 68221 | 3.64e5 | 3.05e5 | inactive |
| Sema1b (GeneID 37007) | DRSC07550 | 6.74e5 | 1.20e6 | 5.61e5 | 8.13e5 | inactive |
| Sema1b (GeneID 37007) | DRSC27552 | 3.17e5 | 2.74e5 | 8.13e5 | 9.16e5 | inactive |
| CG14219 (GeneID 32951) | DRSC19576 | 95842 | 80176 | 1.06e5 | 82349 | inactive |
| CG14219 (GeneID 32951) | DRSC26450 | 2.88e5 | 2.37e5 | 7.25e5 | 7.35e5 | inactive |
| CG1983 (GeneID 43588) | DRSC15410 | 1.84e5 | 2.90e5 | 2.70e6 | 3.61e6 | inactive |
| CG6983 (GeneID 38964) | DRSC10757 | 1.16e6 | 1.06e6 | 2.35e6 | 2.44e6 | inactive |

The list goes on; the last 8 above are carried over.
| gene knocked down | DRSC id | firefly reporter light, replicate 1 | firefly reporter light, replicate 2 | Renilla control light, replicate 1 | Renilla control light, replicate 2 | Outcome |
| --- | --- | --- | --- | --- | --- | --- |
| CheB38b (GeneID 2768933) | DRSC22874 | 2.54e5 | 8.23e5 | 4.08e5 | 1.11e6 | inactive |
| kra (GeneID 40680) | DRSC12320 | 43197 | 68221 | 3.64e5 | 3.05e5 | inactive |
| Sema1b (GeneID 37007) | DRSC07550 | 6.74e5 | 1.20e6 | 5.61e5 | 8.13e5 | inactive |
| Sema1b (GeneID 37007) | DRSC27552 | 3.17e5 | 2.74e5 | 8.13e5 | 9.16e5 | inactive |
| CG14219 (GeneID 32951) | DRSC19576 | 95842 | 80176 | 1.06e5 | 82349 | inactive |
| CG14219 (GeneID 32951) | DRSC26450 | 2.88e5 | 2.37e5 | 7.25e5 | 7.35e5 | inactive |
| CG1983 (GeneID 43588) | DRSC15410 | 1.84e5 | 2.90e5 | 2.70e6 | 3.61e6 | inactive |
| CG6983 (GeneID 38964) | DRSC10757 | 1.16e6 | 1.06e6 | 2.35e6 | 2.44e6 | inactive |
| CG13928 (GeneID 38195) | DRSC08397 | 80224 | 66209 | 4.95e5 | 6.07e5 | inactive |
| a10 (GeneID 39906) | DRSC11319 | 1.79e5 | 1.52e5 | 1.80e6 | 1.65e6 | inactive |
| wa-cup (GeneID 40892) | DRSC12511 | 1.03e5 | 1.00e5 | 2.36e6 | 2.03e6 | inactive |
| snoRNA:660 + Act57B | DRSC23472 | 9.16e5 | 6.68e5 | 7.93e5 | 5.64e5 | inactive |
| S6k (GeneID 38654) | DRSC11276 | 2.50e5 | 1.61e5 | 2.93e6 | 1.84e6 | inactive |
| S6k (GeneID 38654) | DRSC36708 | – | – | – | – | inactive |
| S6k (GeneID 38654) | DRSC36709 | – | – | – | – | inactive |
| Unc-115b + p24-2 | DRSC16492 | 31272 | 1.00e5 | 3.87e5 | 8.35e5 | inactive |
| Nmd3 (GeneID 31195) | DRSC18687 | 1.11e5 | 1.04e5 | 1.38e6 | 7.19e5 | inactive |
| Nmd3 (GeneID 31195) | DRSC22834 | 4.27e5 | 8.01e5 | 4.87e5 | 7.80e5 | inactive |
| grnd (GeneID 35103) | DRSC02020 | 1.68e5 | 1.08e5 | 1.45e6 | 8.05e5 | inactive |
| Eogt (GeneID 33424) | DRSC00727 | 7.16e5 | 8.53e5 | 3.84e6 | 2.53e6 | inactive |
| Eogt (GeneID 33424) | DRSC26180 | 2.86e5 | 2.06e5 | 3.98e5 | 4.09e5 | inactive |
| Ptx1 (GeneID 43664) | DRSC16804 | 1.35e5 | 1.21e5 | 2.08e6 | 2.80e6 | inactive |
| Ptx1 (GeneID 43664) | DRSC25321 | 3.31e5 | 4.96e5 | 6.23e5 | 7.11e5 | inactive |
| CG42749 (GeneID 31438) | DRSC18091 | 3.82e5 | 3.20e5 | 3.68e6 | 3.45e6 | inactive |
| CG42749 (GeneID 31438) | DRSC18092 | 2.27e5 | 3.84e5 | 2.32e6 | 2.25e6 | inactive |
| CG42749 (GeneID 31438) | DRSC29102 | 7.04e5 | 6.79e5 | 1.45e6 | 1.41e6 | inactive |
| CG8003 (GeneID 39210) | DRSC10946 | 1.03e6 | 8.48e5 | 1.54e6 | 1.39e6 | inactive |
| Rap1 (GeneID 38244) | DRSC08686 | 9.20e5 | 6.16e5 | 1.38e6 | 1.06e6 | inactive |
| Rap1 (GeneID 38244) | DRSC25388 | 4.65e5 | 4.27e5 | 5.28e5 | 5.77e5 | inactive |
| thoc5 (GeneID 37810) | DRSC04327 | 6.95e5 | 7.33e5 | 1.26e6 | 1.40e6 | inactive |
| eIF2D (GeneID 64874) | DRSC13916 | 1.20e6 | 5.78e5 | 1.92e6 | 5.96e5 | inactive |
| Lst8 (GeneID 31903) | DRSC18262 | 1.16e5 | 1.05e5 | 6.18e5 | 7.74e5 | inactive |
| Lk6 (GeneID 44672) | DRSC12867 | 4.84e5 | 3.17e5 | 95478 | 5.90e5 | inactive |
| Lk6 (GeneID 44672) | DRSC16728 | 52006 | 67029 | 4.39e5 | 6.07e5 | inactive |
| Lk6 (GeneID 44672) | DRSC24029 | 3.26e5 | 2.93e5 | 3.86e5 | 5.18e5 | active |
| Lk6 (GeneID 44672) | DRSC37028 | – | – | – | – | inactive |
| mRpL42 (GeneID 36050) | DRSC06235 | 2.24e5 | 1.42e5 | 1.35e6 | 9.91e5 | inactive |
| CG12768 (GeneID 40513) | DRSC23215 | 4.78e5 | 4.30e5 | 1.53e6 | 1.91e6 | inactive |
| CG12768 (GeneID 40513) | DRSC28549 | 4.18e5 | 6.72e5 | 6.54e5 | 1.21e6 | inactive |
| Chchd3 (GeneID 43672) | DRSC16981 | 1.36e5 | 1.31e5 | 1.13e6 | 1.72e6 | inactive |
| Chchd3 (GeneID 43672) | DRSC26451 | 2.76e5 | 1.94e5 | 6.91e5 | 3.91e5 | inactive |
| Lamp1 (GeneID 35411) | DRSC03727 | 2.94e5 | 2.77e5 | 1.21e6 | 1.46e6 | inactive |
| CG34201 (GeneID 5740368) | DRSC38628 | 1.03e6 | 7.19e5 | 2.26e6 | 1.31e6 | inactive |
| Cyp301a1 (GeneID 36378) | DRSC07365 | 4.30e5 | 2.50e5 | 1.34e6 | 1.45e6 | inactive |
| CG3649 (GeneID 37626) | DRSC04400 | 4.62e5 | 3.90e5 | 2.82e6 | 2.34e6 | inactive |
| CG3649 (GeneID 37626) | DRSC28728 | 3.82e5 | 4.15e5 | 6.04e5 | 9.02e5 | inactive |
